Peptide text beside a SMILES is read from it.
Test system: Jurkat T cells
Assay: Untargeted metabolomics of supernatants and cell pellets of apoptotic (UV) versus live Jurkat T cells
Assay type: cell-based, human
Conditions: for Fold Change (FAp/FL): Jurkat UV metabolite release, apoptotic versus live supernatant, 4 hours after apoptosis induction; for Fold Change (FAp/FL)-Cell / Fold Change (FAp/FL)-Supe: Jurkat T cells, UV, apoptotic versus live; for Fold Change (FAp/FL)-Cell: cell pellet decrease; for Fold Change (FAp/FL)-Supe: supernatant enrichment

Compound | Fold Change (FAp/FL) | Fold Change (FAp/FL)-Cell | Fold Change (FAp/FL)-Supe | Release of metabolite into apoptotic cell supernatants (in words) (Jurkat T cell supernatants, live and apoptotic conditions)
CCCCC/C=C\C/C=C\CCCCCCCC(=O)O [linoleate (18:2n6)] | 1.64 | – | – | –
O=P(O)(O)OCC(O)CO (stereo not shown) [glycerol 3-phosphate] | 14.17 | 0.66 | 14.17 | –
N[C@@H](Cc1c[nH]c2ccccc12)C(=O)O [tryptophan] | 1.26 | 0.63 | 1.26 | –
choline phosphate | 12.15 | 0.27 | 12.15 | –
CN(CC(=O)O)C(=N)N [creatine] | 5.26 | 0.21 | 5.26 | –
CC(C)[C@H](NC(=O)CN)C(=O)O [glycylvaline] (H-Gly-Val-OH) | 9.36 | – | – | –
C[N+](C)(C)CCOP(=O)([O-])OC[C@H](O)CO [glycerophosphorylcholine (GPC), glycerophosphorylcholine] | 17.82 | 0.10 | 17.82 | –
CCCCCC/C=C\CCCCCCCC(=O)O [palmitoleate (16:1n7)] | 2.45 | – | – | –
CC(=O)N[C@@H](CC(=O)O)C(=O)O [N-acetylaspartate (NAA), N-acetylaspartate] | 7.35 | 0.10 | 7.35 | –
N[C@@H](CS(=O)O)C(=O)O [cysteine sulfinic acid] | 2.02 | 0.48 | 2.02 | –
Nc1nc2c(ncn2[C@@H]2O[C@H](CO)[C@@H](O)[C@H]2O)c(=O)[nH]1 [guanosine] | 11.79 | 0.54 | 11.79 | –
CCCCCCCC/C=C\CCCCCCCC(=O)OC[C@@H](O)COP(=O)([O-])OCC[N+](C)(C)C [1-oleoyl-GPC (18:1)] | 2.74 | 0.46 | 2.74 | –
CC(=O)N[C@@H](CC(N)=O)C(=O)O [N-acetylasparagine] | 2.70 | 0.64 | 2.70 | –
CC(=O)N[C@@H](CCCNC(=N)N)C(=O)O [N-acetylarginine] | 2.02 | – | – | –
NCCS(=O)O [hypotaurine] | 35.43 | 0.06 | 35.43 | –
Nc1ccn([C@@H]2O[C@H](CO)[C@@H](O)[C@H]2O)c(=O)n1 [cytidine] | 99.36 | 0.73 | 99.36 | –
CC(=O)N[C@@H](Cc1c[nH]cn1)C(=O)O [N-acetylhistidine] | 2.58 | 0.49 | 2.58 | –
NCCS(=O)(=O)O [taurine] | 19.01 | 0.08 | 19.01 | –
dihydroxyacetone phosphate [dihydroxyacetone phosphate (DHAP)] | 9.87 | 0.59 | 9.87 | –
O=C(O)/C=C/C(=O)O [fumarate] | 5.39 | 0.34 | 5.39 | –
NCCOP(=O)(O)OCC(O)CO (stereo not shown) [glycerophosphoethanolamine] | 37.37 | 0.07 | 37.37 | –

Compound | Fold Change (FAp/FL) | Fold Change (FAp/FL)-Cell | Fold Change (FAp/FL)-Supe | Release of metabolite into apoptotic cell supernatants (in words) (Jurkat T cell supernatants, live and apoptotic conditions)
N[C@@H](CS(=O)(=O)O)C(=O)O [3 -sulfo-L-alanine] | 2.30 | – | – | –
CC(=O)N[C@@H](CO)C(=O)O [N-acetylserine] | 3.59 | 0.11 | 3.59 | –
C[C@@H](O)[C@H](NC(=O)CC[C@H](N)C(=O)O)C(=O)O [gamma-glutamylthreonine*, gamma-glutamylthreonine] | 4.15 | 0.16 | 4.15 | –
O=C(CO)[C@@H](O)[C@H](O)[C@H](O)CO [fructose] | 1.25 | – | – | –
CC[C@H](C)[C@H](N)C(=O)O [isoleucine] | 1.12 | 0.71 | 1.12 | –
Nc1nc2c(ncn2[C@H]2C[C@H](O)[C@@H](CO)O2)c(=O)[nH]1 [2′-deoxyguanosine] | 3.12 | 0.61 | 3.12 | –
linolenate [alpha or gamma; (18:3n3 or 6)] | 1.91 | – | – | –
arabonate/xylonate | 1.48 | – | – | –
O=C(O)C1CCCCN1 (stereo not shown) [pipecolate] | 1.28 | 0.08 | 1.28 | –
dimethyl arginine (SDMA + ADMA) | 1.83 | – | – | –
N[C@@H](Cc1ccc(O)cc1)C(=O)O [tyrosine] | 1.14 | 0.76 | 1.14 | –
C[N+](C)(C)CC(O)CC(=O)[O-] (stereo not shown) [carnitine] | 2.19 | 0.15 | 2.19 | –
Cc1cn([C@H]2C[C@H](O)[C@@H](CO)O2)c(=O)nc1N [5-methyl-2′-deoxycytidine] | 1.65 | – | – | –
N[C@@H](Cc1ccccc1)C(=O)O [phenylalanine] | 1.14 | 0.71 | 1.14 | –
CN(C)CC(=O)O [dimethylglycine] | 2.29 | 0.46 | 2.29 | –
C[C@@H](O)[C@H](N)C(=O)O [threonine] | 1.20 | 0.69 | 1.20 | –
C[N+](C)(C)CCCC(=O)[O-] [deoxycarnitine] | 3.25 | 0.10 | 3.25 | –
Nc1ccn([C@H]2C[C@H](O)[C@@H](CO)O2)c(=O)n1 [2′-deoxycytidine] | 4.21 | 0.26 | 4.21 | –
N[C@@H](CCC(=O)O)C(=O)O [glutamate] | 1.52 | 0.23 | 1.52 | –
CC(=O)N[C@@H](CC(C)C)C(=O)O [N-acetylleucine] | 2.48 | – | – | –
NC(=O)c1ccc[n+]([C@@H]2O[C@H](CO)[C@@H](O)[C@H]2O)c1 [nicotinamide riboside] | 2.66 | 0.14 | 2.66 | –

Compound | Fold Change (FAp/FL) | Fold Change (FAp/FL)-Cell | Fold Change (FAp/FL)-Supe | Release of metabolite into apoptotic cell supernatants (in words) (Jurkat T cell supernatants, live and apoptotic conditions)
O=CN[C@@H](Cc1ccccc1)C(=O)O [N-formylphenylalanine] | 1.87 | – | – | –
Nc1ccn([C@@H]2O[C@H](COP(=O)(O)O)[C@@H](O)[C@H]2O)c(=O)n1 [cytidine 5′-monophosphate (5′-CMP), cytidine 5′-monophosphate] | 16.36 | 0.34 | 16.36 | –
OC[C@H]1O[C@@H](n2cnc3c(O)ncnc32)[C@H](O)[C@@H]1O [inosine] | 5.14 | 0.11 | 5.14 | –
CC[C@H](C)[C@H](NC(C)=O)C(=O)O [N-acetylisoleucine] | 2.76 | – | – | –
Nc1ncnc2c1ncn2[C@H]1C[C@H](O)[C@@H](COP(=O)(O)O)O1 [2′-deoxyadenosine 5′-monophosphate] | 20.95 | 0.65 | 20.95 | –
C[S+]([O-])CC[C@H](N)C(=O)O (stereo partly shown) [methionine sulfoxide] | 1.16 | 0.83 | 1.16 | –
CC/C=C\C/C=C\C/C=C\C/C=C\C/C=C\C/C=C\CCC(=O)O [docosahexaenoate (DHA; 22:6n3)] | 1.97 | – | – | –
Nc1nc2c(ncn2[C@@H]2O[C@H](COP(=O)(O)O)[C@@H](O)[C@H]2O)c(=O)[nH]1 [guanosine 5′-monophosphate (5′-GMP), guanosine 5′-monophosphate] | 8.66 | 0.74 | 8.66 | –
mannitol/sorbitol | 2.25 | 0.50 | 2.25 | –
C[C@H](N)C(=O)O [alanine] | – | – | – | not released
NC(=O)N[C@@H](CC(=O)O)C(=O)O [N-carbamoylaspartate] | 1.31 | 0.01 | 1.31 | –
CN(C)c1nc2c(ncn2[C@@H]2O[C@H](CO)[C@@H](O)[C@H]2O)c(=O)[nH]1 [N2,N2-dimethylguanosine] | 1.63 | – | – | –
O=C(O)CCC(=O)O [succinate] | 1.55 | – | – | –
eicosenoate (20:1) | 2.49 | – | – | –
CC(=O)N[C@@H](Cc1ccccc1)C(=O)O [N-acetylphenylalanine] | 2.76 | – | – | –
CC(=O)N[C@H]1[C@@H](OP(=O)(O)OP(=O)(O)OC[C@H]2O[C@@H](n3ccc(=O)[nH]c3=O)[C@H](O)[C@@H]2O)O[C@H](CO)[C@H](O)[C@@H]1O [UDP-N-acetylgalactosamine] | 16.96 | 0.60 | 16.96 | –
O=c1ccn([C@@H]2O[C@H](CO)[C@@H](O)[C@H]2O)c(=O)[nH]1 [uridine] | 25.03 | 0.66 | 25.03 | –
CC(C)[C@H](N)C(=O)O [valine] | 1.26 | 0.76 | 1.26 | –
NC(=O)CC[C@H](NC(=O)CC[C@H](N)C(=O)O)C(=O)O [gamma-glutamylglutamine] | 1.51 | 0.45 | 1.51 | –

From patent US20230172877A1, “METABOLITES RELEASED FROM APOPTOTIC CELLS ACT AS NOVEL TISSUE MESSENGERS” (University of Virginia Patent Foundation, priority 2020, published 2023)
